Our source for the binding values is article PMC5702644.

Sequences of proteins named here, by UniProt entry; tags and fusion partners are left off.
UniProt P68400: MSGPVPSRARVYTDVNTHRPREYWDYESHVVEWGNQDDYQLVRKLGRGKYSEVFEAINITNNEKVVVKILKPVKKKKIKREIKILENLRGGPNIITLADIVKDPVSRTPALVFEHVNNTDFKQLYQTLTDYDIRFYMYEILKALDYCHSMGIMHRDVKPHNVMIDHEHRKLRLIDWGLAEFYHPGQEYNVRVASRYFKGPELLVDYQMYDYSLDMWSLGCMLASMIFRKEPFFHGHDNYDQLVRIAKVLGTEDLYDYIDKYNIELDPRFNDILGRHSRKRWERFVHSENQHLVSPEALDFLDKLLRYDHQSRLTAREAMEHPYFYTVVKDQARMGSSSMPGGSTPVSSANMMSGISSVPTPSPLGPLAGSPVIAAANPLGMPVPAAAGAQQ
UniProt P67870: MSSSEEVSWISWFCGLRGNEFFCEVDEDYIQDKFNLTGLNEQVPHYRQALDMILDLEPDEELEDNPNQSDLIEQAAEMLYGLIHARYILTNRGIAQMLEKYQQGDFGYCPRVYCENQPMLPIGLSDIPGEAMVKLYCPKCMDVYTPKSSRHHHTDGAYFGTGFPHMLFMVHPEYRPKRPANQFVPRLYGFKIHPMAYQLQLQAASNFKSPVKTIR
UniProt Q15418: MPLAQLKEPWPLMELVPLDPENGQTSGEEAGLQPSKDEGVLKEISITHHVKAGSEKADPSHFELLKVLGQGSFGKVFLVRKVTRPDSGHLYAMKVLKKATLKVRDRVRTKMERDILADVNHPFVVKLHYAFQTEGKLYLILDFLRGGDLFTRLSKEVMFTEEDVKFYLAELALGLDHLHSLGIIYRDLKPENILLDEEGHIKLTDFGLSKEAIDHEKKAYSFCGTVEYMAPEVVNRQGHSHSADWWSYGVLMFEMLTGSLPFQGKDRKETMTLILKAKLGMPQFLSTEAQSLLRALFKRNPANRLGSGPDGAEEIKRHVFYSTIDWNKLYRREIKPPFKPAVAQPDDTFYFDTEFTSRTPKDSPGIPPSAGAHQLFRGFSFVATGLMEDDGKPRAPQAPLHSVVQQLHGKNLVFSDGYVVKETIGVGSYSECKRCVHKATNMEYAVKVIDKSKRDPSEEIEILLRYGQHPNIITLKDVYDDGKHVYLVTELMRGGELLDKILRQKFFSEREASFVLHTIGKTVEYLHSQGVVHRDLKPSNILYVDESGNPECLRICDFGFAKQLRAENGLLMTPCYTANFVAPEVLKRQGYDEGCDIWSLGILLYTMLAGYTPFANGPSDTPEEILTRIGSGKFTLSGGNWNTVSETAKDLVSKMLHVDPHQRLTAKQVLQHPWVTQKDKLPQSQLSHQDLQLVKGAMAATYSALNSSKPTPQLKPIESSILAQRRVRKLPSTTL
UniProt Q15349: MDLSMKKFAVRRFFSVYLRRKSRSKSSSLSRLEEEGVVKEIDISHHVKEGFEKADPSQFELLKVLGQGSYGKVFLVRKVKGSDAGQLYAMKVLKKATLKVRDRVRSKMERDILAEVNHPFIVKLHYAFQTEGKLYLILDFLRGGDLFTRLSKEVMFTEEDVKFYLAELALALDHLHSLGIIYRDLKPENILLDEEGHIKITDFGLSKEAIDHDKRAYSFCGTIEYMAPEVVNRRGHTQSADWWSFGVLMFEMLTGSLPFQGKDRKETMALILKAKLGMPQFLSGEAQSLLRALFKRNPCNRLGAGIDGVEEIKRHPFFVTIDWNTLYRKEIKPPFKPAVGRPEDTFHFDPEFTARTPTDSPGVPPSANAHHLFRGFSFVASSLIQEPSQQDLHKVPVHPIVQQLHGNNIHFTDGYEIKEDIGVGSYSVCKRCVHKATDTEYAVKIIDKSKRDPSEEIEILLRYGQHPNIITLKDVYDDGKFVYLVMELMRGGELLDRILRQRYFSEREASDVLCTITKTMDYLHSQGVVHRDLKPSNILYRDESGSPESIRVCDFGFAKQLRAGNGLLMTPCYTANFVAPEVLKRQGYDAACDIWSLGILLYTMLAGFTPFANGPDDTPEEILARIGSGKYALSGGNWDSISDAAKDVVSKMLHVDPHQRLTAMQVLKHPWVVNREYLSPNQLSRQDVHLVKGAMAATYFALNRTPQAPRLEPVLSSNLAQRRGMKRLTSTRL
UniProt Q9UK32: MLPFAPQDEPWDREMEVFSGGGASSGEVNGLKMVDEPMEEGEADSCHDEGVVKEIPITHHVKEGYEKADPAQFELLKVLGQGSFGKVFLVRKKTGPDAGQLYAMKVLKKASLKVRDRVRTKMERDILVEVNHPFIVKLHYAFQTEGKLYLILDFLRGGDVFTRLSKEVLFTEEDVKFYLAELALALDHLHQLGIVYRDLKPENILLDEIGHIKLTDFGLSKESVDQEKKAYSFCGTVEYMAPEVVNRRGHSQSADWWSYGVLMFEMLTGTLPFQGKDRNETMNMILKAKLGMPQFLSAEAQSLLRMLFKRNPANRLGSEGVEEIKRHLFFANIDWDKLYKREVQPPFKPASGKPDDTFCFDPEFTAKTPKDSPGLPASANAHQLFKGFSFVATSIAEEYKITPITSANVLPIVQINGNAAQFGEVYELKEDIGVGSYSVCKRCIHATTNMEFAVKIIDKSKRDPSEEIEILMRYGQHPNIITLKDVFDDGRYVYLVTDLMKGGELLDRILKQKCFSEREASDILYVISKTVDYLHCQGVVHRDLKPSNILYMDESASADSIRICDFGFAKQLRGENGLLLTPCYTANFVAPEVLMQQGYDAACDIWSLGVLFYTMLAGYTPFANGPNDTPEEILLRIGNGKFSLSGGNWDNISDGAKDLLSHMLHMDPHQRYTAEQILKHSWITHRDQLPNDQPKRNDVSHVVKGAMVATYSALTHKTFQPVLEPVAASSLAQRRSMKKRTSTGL

What all share (assay): affinity purification with mass spectrometry; FLAG-tagged CK2 subunit transiently transfected into HEK-293T cells arrested in mitosis (thymidine, Taxol); anti-FLAG M2 affinity gel, 2 h at 4°C, 50 mM Tris-HCl pH 7.5, 150 mM NaCl, 1% Triton-X100; eluted with 3xFLAG peptide, TCA precipitated, LC-MS/MS; quadruplicate; hits enriched 3-fold or more above control pull-downs
In one test the target is FLAG-tagged CK2α (human) (UniProt P68400).
Test [1] concerns the target FLAG-tagged CK2α' (human) (UniProt P19784).
Another test has as its target FLAG-tagged CK2β (human) (UniProt P67870).

No constants are given. Whether binding was seen depends on the method and setting. Binding seen in cells or lysates may run through a third protein. Here binding means that the protein was enriched with, or labelled near, the bait; the list need not be complete. For part of these data: A no says only that the protein was not detected with the bait.

As for “RSK α1 (90 kDa ribosomal S6 kinase family) (from UniProt Q15418 1-735) (enzyme)”, the binding result with FLAG-tagged CK2α (human) was “no binding”; in test [1], “no binding”; in the test with FLAG-tagged CK2β (human), “binds”.
As to “RSK α3 (90 kDa ribosomal S6 kinase family) (from UniProt P51812 1-740) (enzyme)”, the binding result is recorded as “no binding” with FLAG-tagged CK2α (human), “no binding” in test [1] and “binds” with FLAG-tagged CK2β (human).
For “RPS6KA2 (from UniProt Q15349 1-733) (enzyme)”, the binding entry in the test with FLAG-tagged CK2α (human) is given as “no binding”; in test [1] it was “no binding”; in the test with FLAG-tagged CK2β (human), “binds”.
As for “RSK α6 (90 kDa ribosomal S6 kinase family) (from UniProt Q9UK32 1-745) (enzyme)”, the binding entry with FLAG-tagged CK2α (human) is “no binding”; in test [1], “no binding”; with FLAG-tagged CK2β (human), “binds”.
